Assay results from publication PMC7819943, “Rice protein-binding microarrays: a tool to detect cis-acting elements near promoter regions in rice”.
The list shows a part of the results.

Amino acid sequences for entries named in this document (tags omitted).
UniProt Q0JBA9, entry or part of it: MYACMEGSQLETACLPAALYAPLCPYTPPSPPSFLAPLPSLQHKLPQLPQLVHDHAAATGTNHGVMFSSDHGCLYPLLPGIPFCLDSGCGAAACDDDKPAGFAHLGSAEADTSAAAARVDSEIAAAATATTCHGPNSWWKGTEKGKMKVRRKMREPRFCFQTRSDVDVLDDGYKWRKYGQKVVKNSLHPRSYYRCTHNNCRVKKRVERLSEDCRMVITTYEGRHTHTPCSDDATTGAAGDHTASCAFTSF

target: OsWRKY34 (Oryza sativa, UniProt Q0JBA9 1-250); experiment: protein-binding microarray (RPBM); PBS, 2% BSA, 51.3 ng/ul salmon testes DNA, 50 uM zinc acetate, 200 nM TF, 25 C, 1 h; high values mean tight binding; conditions: protein: recombinant; tags: N-terminal polyhistidine and DsRed monomer fusion (pET32a); label: CyDye5-dUTP incorporated in the synthesized complementary strand; 3' TTTTT single-stranded linker to array surface; dsDNA, one strand shown
Procedure, shortened: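 Binding signal here means per-feature fluorescence intensity in arbitrary units. The values were read on an Axon 4000B scanner after a custom Agilent array, double-stranded by primer extension with Cy5-dUTP, was incubated with 200 nM protein at 25 °C for 1 h in PBS with 2% BSA, salmon testes DNA and 50 µM zinc acetate, then washed. The proteins were transcription factors with an N-terminal polyhistidine tag and DsRed, expressed in E. coli BL21-CodonPlus and purified on Ni–NTA.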

Sequence	binding signal
ATCCAACTGGCTTTTGCCGGTTCTTTTGGCCCTTGCACACCGGAGTCACCTAGTGCAG	11300 fluorescence intensity (a.u.)
CTGTCTCACTCACAAATCACACATCTTCCTACCTCTCTCCCGGAGTCACCTAGTGCAG	9770 fluorescence intensity (a.u.)
AATCTTCCCCTAACTTTGCTAATTATTCACTGGCCTTTTCCGGAGTCACCTAGTGCAG	10000 fluorescence intensity (a.u.)
CCGCCCACCTACCCGACTACCCGAGGCAGCCTCTCTCTCCCGGAGTCACCTAGTGCAG	8730 fluorescence intensity (a.u.)
AATTTGAAACAGTTTGATTTTGACTGAAGTCAAAACGACTCGGAGTCACCTAGTGCAG	9500 fluorescence intensity (a.u.)
TTAGATGATTTGTTTGCTTACTTCCATTCTAGCAGATAGACGGAGTCACCTAGTGCAG	10600 fluorescence intensity (a.u.)
GCAAAAAATACAGTTGTTTCTCCCGTTCTTGTTCACGGTCCGGAGTCACCTAGTGCAG	8420 fluorescence intensity (a.u.)
TCCTTTCACTTGCTTGCTCTTTGTGTACATCTTTCGCCGGCGGAGTCACCTAGTGCAG	12300 fluorescence intensity (a.u.)
CATCCCCACCCTCGCCGCTGCTGCCGCCGCCGTCGCCGCCCGGAGTCACCTAGTGCAG	8910 fluorescence intensity (a.u.)
TAGCATGAATTGCTTGTTGTACCATCCATTTTCCGTTGACCGGAGTCACCTAGTGCAG	11500 fluorescence intensity (a.u.)
GCCGCCGCCGTCGCTGTCTCCCGCGCCCGGCCGGACGGCCCGGAGTCACCTAGTGCAG	10300 fluorescence intensity (a.u.)
CGAATCCCCGCCGTCTCCTCGCTCCGTGCGCATCCTCCCTCGGAGTCACCTAGTGCAG	8200 fluorescence intensity (a.u.)
TGCTGCTAGGGTTTGTAGGGTGGTTCGCTCGGTGGGTGGTCGGAGTCACCTAGTGCAG	8750 fluorescence intensity (a.u.)
AACCGCCATCCAAAACCGTCCAGGGAGTCAAATTACACTGCGGAGTCACCTAGTGCAG	8110 fluorescence intensity (a.u.)
GTGTTTACTTCACTTTGCTCGTTTACTTCGATCGGTCTCGCGGAGTCACCTAGTGCAG	12900 fluorescence intensity (a.u.)
TCGATGTATATGGGCCTCGCGTTTGTTTCGGCCTGTTTACCGGAGTCACCTAGTGCAG	9040 fluorescence intensity (a.u.)
TAATGGATCTTCGCTTTCTGTTTTGTGCTGTTGTTGTCTTCGGAGTCACCTAGTGCAG	10700 fluorescence intensity (a.u.)
TGCTTACTACTGATAATATCCGCTTTGCTAATTGCTAGCACGGAGTCACCTAGTGCAG	8350 fluorescence intensity (a.u.)
TACACGCTCGGCTCCCGACCCGGCACCGGCGACGACTTCCCGGAGTCACCTAGTGCAG	8280 fluorescence intensity (a.u.)
TCCGCTCCGTTTTCATCTCCGTATTGGCTCCGTTCTCATCCGGAGTCACCTAGTGCAG	13700 fluorescence intensity (a.u.)
CCTACTGTGTCCTTACTACTCATGATGACACGCGTTTTCTCGGAGTCACCTAGTGCAG	13700 fluorescence intensity (a.u.)

Quoted from the listing.
binding signal with AATCTTCCCCTAACTTTGCTAATTATTCACTGGCCTTTTCCGGAGTCACCTAGTGCAG is entered as 10000 fluorescence intensity (a.u.)
binding signal with CCGCCCACCTACCCGACTACCCGAGGCAGCCTCTCTCTCCCGGAGTCACCTAGTGCAG is entered as 8730 fluorescence intensity (a.u.)

Further results:

Sequence	binding signal
AGCTGTCAGCCCGCCGCGCCCACCTACCCGCGTCCACGCGCGGAGTCACCTAGTGCAG	11000 fluorescence intensity (a.u.)
ACACATTGCCATGATCGAGCTCATGATCACCTTCCATCCGCGGAGTCACCTAGTGCAG	8660 fluorescence intensity (a.u.)
GGTCCCACTCGTCATAATCTCTGTTTGGCCATAATTGGAACGGAGTCACCTAGTGCAG	10500 fluorescence intensity (a.u.)
TCCTTCTCAACCTCCTCCTATTCTCTCTCTCTCTCTCTCTCGGAGTCACCTAGTGCAG	8590 fluorescence intensity (a.u.)
GCCTGGCTAGCACCGTCATTACGTCAACCGCTGACGTCAGCGGAGTCACCTAGTGCAG	9560 fluorescence intensity (a.u.)
CGGTCGCATCACTCCTTTCCCACGCCCCACGCCCTCGAAGCGGAGTCACCTAGTGCAG	8210 fluorescence intensity (a.u.)
CAGAGGCGGTCAAGTGTGGTGCGGTGCGATGGCAGCGGGGCGGAGTCACCTAGTGCAG	8510 fluorescence intensity (a.u.)
TATCTACCGTCTCGCCTATTCAGATTCGTAACGAGTCTTCCGGAGTCACCTAGTGCAG	8590 fluorescence intensity (a.u.)
CACCGAAATGCTCACATCTCACCCGAAAATTTTGTTTTTTCGGAGTCACCTAGTGCAG	10300 fluorescence intensity (a.u.)
ATGTGTCTCTTTTACTGCCATATGTATCAACCAATCGATTCGGAGTCACCTAGTGCAG	9920 fluorescence intensity (a.u.)
CTCGAGGTAGGGTTTCGAGCTCAGATTTGGGTGTTTCTCTCGGAGTCACCTAGTGCAG	8290 fluorescence intensity (a.u.)
CCAAGGGTGGGGCCTCTCGTCGTCTCGTCTCCTCTCGTCTCGGAGTCACCTAGTGCAG	20400 fluorescence intensity (a.u.)
GCTTTAACCTTCGGATCAATGCTTGTTCTATCATCTCATTCGGAGTCACCTAGTGCAG	9560 fluorescence intensity (a.u.)
CTTCCTCTTCCATTCCGTGTTTATCCTGTCATCTCTTCCACGGAGTCACCTAGTGCAG	8480 fluorescence intensity (a.u.)
ATCTTTTCAATGTATTGCGCTTCACTATCTCAGCCATTCCCGGAGTCACCTAGTGCAG	9320 fluorescence intensity (a.u.)
ATATGCGTTCATCCATGCTCCATCTCCATCTCCAGCTTAACGGAGTCACCTAGTGCAG	8050 fluorescence intensity (a.u.)
TGTTCTGCACTAACAGCCGTGCCAGTGTCACCTAATTATCCGGAGTCACCTAGTGCAG	9120 fluorescence intensity (a.u.)
GCCACGTGTCAATCCTGTGGTTCGGTTTCGTGGCGGTTGCCGGAGTCACCTAGTGCAG	8730 fluorescence intensity (a.u.)
ACCTGTAATGCATATTTTCCCAGTTTCTCAATCATGAAGCCGGAGTCACCTAGTGCAG	9610 fluorescence intensity (a.u.)
AGTTGTTGTGTTTCTTTTTGTTTTCGAAATTTACTCGGAACGGAGTCACCTAGTGCAG	9440 fluorescence intensity (a.u.)
CAAAAAATATCTAATGTTATATCGCTACTCCTTTTTTTTTCGGAGTCACCTAGTGCAG	9010 fluorescence intensity (a.u.)
